The test has as its target T1, FLAG-MANF (UniProt P55145).
T1 sequence: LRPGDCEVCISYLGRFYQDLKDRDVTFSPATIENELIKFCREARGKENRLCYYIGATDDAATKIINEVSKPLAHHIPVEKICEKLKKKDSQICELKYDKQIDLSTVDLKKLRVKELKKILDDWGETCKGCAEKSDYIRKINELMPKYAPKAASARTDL
Kind of test: co-IP; plasmids of RNF2 truncates and MANF co-transfected to N2a cells, 36 h; lysates on anti-FLAG M2 affinity gel; blots with anti-GFP and anti-FLAG.

No constants are given. Whether binding was seen depends on the method and setting. Binding seen in cells or lysates may run through a third protein. Where a sequence is shown, tags or fusion partners need not be part of it.

In the case of “RNF2 mutant lacking the RING-finger domain (domain or fragment)”, the binding entry is recorded as “no binding”.

Source of the values: paper PMC11607471, “E3 Ubiquitin Ligase Ring Finger Protein 2 Alleviates Cerebral Ischemia–Reperfusion Injury by Stabilizing Mesencephalic Astrocyte‐Derived Neurotrophic Factor Through Monoubiquitination” (CNS Neuroscience & Therapeutics, 2024).
